Source: the supplement of paper PMC10849652
The list shows a part of the results.

Amino acid sequences for entries named in this document (tags omitted). A change or cut given only in a name is not applied to a line headed by its entry.
UniProt Q15021, whole entry, looked up: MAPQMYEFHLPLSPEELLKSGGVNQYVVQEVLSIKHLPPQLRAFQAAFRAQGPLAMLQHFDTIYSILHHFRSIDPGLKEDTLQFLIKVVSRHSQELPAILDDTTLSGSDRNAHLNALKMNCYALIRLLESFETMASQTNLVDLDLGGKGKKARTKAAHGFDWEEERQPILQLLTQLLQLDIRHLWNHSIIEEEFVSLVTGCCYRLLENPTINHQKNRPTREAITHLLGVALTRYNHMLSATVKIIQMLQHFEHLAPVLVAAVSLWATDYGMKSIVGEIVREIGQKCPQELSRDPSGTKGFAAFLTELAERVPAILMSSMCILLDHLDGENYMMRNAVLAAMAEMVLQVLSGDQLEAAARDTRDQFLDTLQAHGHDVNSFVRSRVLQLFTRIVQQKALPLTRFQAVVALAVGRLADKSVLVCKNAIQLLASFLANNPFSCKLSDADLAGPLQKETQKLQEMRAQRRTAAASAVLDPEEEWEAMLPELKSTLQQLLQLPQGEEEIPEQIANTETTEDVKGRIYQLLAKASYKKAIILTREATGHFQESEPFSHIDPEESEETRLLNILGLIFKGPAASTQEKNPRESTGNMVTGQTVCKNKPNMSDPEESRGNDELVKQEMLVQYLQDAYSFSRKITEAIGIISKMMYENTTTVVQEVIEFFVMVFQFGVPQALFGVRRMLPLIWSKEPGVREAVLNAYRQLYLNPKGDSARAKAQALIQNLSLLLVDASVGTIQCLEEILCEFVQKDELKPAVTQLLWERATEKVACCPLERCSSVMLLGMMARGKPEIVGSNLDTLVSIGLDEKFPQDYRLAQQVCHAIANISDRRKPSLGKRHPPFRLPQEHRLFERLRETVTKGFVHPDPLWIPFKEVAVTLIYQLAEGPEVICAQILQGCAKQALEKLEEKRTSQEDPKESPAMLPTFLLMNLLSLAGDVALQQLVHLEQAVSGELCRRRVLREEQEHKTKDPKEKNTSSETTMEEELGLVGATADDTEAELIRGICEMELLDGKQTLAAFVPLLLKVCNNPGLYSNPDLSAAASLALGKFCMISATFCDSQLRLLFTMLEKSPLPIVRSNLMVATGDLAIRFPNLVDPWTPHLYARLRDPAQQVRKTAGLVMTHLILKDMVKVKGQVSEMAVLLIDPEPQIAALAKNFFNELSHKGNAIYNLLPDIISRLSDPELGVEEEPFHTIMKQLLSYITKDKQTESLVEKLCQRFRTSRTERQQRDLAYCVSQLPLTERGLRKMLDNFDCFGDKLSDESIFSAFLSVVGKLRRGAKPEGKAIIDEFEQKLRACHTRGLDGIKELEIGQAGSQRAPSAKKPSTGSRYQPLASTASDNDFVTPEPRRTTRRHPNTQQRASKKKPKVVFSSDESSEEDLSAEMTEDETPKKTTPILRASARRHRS
UniProt Q9BSU3: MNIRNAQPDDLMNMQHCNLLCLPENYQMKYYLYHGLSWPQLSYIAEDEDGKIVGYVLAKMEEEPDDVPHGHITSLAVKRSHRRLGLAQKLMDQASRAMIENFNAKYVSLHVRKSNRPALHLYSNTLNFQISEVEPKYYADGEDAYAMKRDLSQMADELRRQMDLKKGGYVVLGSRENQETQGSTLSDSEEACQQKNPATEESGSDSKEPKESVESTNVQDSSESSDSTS
UniProt Q9BPX3, whole entry, looked up: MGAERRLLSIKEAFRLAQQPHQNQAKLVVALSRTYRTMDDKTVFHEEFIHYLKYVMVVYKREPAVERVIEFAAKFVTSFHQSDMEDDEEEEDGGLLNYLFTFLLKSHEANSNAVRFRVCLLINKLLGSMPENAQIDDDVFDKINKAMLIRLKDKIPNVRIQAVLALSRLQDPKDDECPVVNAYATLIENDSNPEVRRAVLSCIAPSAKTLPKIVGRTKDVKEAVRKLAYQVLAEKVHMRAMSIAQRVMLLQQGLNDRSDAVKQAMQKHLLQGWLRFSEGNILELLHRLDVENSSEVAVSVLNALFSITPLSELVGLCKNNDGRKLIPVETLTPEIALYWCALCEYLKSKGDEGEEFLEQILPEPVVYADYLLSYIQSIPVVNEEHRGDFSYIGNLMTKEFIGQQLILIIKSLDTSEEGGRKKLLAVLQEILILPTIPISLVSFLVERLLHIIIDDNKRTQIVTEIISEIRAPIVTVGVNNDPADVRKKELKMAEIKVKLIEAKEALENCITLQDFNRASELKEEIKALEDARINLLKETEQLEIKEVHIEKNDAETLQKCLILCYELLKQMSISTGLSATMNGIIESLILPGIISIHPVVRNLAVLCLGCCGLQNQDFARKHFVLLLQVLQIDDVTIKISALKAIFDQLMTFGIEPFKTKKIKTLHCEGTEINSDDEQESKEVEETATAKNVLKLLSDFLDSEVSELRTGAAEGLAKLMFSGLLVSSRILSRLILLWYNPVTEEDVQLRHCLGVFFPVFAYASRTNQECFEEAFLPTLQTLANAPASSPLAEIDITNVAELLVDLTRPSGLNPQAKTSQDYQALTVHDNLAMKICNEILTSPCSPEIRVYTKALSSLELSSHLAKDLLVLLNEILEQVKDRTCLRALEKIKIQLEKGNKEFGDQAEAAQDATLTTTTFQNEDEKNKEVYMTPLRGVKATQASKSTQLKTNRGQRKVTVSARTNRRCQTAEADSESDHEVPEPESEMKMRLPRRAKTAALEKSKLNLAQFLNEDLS
UniProt Q96RE7: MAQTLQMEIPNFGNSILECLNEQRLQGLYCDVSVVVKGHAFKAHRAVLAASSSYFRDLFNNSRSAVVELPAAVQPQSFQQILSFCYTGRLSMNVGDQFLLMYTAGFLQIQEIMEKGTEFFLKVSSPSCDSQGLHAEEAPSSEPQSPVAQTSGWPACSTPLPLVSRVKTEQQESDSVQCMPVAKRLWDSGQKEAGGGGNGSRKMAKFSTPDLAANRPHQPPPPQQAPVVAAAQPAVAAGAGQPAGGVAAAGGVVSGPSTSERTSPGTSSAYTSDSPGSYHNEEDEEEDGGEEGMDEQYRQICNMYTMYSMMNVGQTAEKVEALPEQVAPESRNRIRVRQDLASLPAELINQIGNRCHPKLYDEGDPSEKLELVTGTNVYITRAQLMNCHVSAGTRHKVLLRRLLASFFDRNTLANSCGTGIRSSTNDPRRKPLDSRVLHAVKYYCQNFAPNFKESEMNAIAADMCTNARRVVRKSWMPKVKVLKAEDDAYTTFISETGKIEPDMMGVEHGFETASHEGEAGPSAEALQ
UniProt Q14686, whole entry, looked up: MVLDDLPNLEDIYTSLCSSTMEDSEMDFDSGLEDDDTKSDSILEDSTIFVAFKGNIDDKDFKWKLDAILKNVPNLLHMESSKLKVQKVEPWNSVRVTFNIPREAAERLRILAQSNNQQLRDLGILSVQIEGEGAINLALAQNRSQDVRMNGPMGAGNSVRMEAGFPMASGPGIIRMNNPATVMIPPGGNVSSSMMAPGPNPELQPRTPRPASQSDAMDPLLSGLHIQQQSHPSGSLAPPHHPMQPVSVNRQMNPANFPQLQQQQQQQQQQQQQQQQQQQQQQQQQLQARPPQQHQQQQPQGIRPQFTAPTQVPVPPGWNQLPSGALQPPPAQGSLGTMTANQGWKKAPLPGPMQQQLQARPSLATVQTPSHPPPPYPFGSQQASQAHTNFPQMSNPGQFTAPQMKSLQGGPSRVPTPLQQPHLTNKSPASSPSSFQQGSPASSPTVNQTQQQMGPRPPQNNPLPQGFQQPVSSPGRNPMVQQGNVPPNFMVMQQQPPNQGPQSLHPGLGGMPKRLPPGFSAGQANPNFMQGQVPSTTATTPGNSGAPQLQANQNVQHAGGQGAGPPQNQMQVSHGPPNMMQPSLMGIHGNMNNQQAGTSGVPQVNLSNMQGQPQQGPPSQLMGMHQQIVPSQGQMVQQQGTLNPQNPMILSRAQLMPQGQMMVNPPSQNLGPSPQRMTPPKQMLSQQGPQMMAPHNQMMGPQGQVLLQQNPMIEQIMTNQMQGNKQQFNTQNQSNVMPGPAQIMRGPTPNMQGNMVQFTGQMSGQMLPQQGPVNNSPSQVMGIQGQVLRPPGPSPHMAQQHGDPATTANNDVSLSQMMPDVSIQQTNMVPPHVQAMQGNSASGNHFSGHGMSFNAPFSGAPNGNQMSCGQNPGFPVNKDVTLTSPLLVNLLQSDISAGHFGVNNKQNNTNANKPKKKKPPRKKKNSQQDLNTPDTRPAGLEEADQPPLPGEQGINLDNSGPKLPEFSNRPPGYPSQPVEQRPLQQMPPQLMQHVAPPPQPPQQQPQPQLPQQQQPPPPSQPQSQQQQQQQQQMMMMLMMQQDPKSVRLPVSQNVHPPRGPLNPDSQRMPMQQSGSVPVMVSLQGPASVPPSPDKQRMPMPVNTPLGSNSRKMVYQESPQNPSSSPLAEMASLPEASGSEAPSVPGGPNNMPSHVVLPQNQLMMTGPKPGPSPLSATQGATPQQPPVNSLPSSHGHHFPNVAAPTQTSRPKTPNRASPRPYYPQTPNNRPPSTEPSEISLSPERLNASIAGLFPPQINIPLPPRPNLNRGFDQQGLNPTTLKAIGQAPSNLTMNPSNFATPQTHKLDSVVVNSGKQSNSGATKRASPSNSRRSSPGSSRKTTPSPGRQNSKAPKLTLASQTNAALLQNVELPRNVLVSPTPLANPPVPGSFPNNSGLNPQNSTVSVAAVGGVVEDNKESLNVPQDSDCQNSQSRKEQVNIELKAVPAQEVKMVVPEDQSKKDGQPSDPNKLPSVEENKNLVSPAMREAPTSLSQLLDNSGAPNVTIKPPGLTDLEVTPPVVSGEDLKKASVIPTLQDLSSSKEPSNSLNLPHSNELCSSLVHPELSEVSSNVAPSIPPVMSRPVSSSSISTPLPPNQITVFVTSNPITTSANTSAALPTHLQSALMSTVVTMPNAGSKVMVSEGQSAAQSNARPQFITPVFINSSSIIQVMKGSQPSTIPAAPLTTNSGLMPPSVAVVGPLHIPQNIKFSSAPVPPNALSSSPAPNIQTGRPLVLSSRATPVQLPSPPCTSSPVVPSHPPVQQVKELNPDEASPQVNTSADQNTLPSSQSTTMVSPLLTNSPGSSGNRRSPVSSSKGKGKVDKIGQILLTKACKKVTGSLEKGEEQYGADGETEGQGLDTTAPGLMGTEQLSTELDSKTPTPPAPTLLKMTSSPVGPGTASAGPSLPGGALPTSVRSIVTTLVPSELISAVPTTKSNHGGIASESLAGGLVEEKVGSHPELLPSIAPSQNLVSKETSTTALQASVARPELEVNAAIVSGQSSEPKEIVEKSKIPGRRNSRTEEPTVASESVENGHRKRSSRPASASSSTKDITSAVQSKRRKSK
UniProt O95169, whole entry, looked up: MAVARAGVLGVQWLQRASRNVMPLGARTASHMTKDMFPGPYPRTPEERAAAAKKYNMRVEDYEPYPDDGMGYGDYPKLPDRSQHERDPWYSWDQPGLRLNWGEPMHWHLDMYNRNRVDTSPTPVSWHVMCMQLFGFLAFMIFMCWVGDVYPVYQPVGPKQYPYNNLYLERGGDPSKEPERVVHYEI
UniProt P62166, whole entry, looked up: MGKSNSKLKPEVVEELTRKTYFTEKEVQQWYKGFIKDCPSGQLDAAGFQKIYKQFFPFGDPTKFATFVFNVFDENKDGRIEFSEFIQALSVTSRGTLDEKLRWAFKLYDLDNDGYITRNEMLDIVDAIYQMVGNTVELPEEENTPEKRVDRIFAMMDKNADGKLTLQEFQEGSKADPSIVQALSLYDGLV
UniProt Q9BRA0: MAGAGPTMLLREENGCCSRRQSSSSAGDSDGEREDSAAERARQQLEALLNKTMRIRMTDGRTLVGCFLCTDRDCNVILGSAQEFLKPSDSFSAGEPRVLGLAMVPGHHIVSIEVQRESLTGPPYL
UniProt P49321, whole entry, looked up: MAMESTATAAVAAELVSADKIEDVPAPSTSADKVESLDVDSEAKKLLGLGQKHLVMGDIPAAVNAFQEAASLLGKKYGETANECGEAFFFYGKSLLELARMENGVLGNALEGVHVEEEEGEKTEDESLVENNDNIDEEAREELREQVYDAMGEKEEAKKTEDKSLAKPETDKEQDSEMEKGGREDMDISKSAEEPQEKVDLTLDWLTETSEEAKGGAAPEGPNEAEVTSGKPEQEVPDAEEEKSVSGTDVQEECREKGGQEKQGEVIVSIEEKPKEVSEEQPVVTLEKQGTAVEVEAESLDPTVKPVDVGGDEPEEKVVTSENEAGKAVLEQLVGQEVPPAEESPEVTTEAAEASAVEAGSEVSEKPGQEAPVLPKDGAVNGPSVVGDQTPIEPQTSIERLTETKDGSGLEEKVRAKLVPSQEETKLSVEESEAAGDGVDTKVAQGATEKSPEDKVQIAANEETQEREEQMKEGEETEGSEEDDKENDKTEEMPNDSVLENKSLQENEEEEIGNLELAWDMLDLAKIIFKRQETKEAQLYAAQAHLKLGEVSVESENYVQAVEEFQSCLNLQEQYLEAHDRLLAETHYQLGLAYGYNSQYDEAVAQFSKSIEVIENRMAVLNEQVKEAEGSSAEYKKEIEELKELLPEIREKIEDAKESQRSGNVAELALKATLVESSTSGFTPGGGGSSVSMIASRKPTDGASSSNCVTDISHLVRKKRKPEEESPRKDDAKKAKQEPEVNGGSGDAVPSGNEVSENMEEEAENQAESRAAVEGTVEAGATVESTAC

Legend:
Experiment in all cases: log2 fold change, soluble protein after heating vs DMSO (PISA); higher = thermal stabilisation; K562 cells, 10 uM, 30 min; active = over 0.2 and 3.5 SD of the protein, either way, in both replicates (recomputed)
[1] = compound: COC1=CC=C(C=C1)CN2C=CC3=C2C=C(C=C3)C(=O)NO
In short: (§1)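 K562 cells at 2×10^6 cells/mL were treated with 10 μM compound for 30 min. Aliquots were heated for 3 min across 48°C-58°C, pooled, and extracted in PBS with 0.5% NP-40 at 4°C; soluble protein was the supernatant after 21,000xg for 90 min. Soluble protein was quantified by TMTpro 16plex LC-MS/MS with channel sums equalised, and reported as log2 fold change in thermal stability against DMSO controls, with values from duplicates.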

[2] = compound: CON(C)C(=O)N1N=C(c2cc(F)ccc2F)S[C@@]1(CCCN)c1ccccc1 [filanesib]
In short: as §1

[3] = compound: CO[C@H]1C[C@@H]2CC[C@@H](C)[C@@](O)(O2)C(=O)C(=O)N2CCCC[C@H]2C(=O)O[C@H]([C@H](C)C[C@@H]2CC[C@H](n3cnnn3)[C@H](OC)C2)CC(=O)[C@H](C)/C=C(\C)[C@@H](O)[C@@H](OC)C(=O)[C@H](C)C[C@H](C)/C=C/C=C/C=C/1C [zotarolimus]
In short: as §1

[4] = compound: COc1cc(Nc2ncc3c(n2)-c2ccc(Cl)cc2C(c2c(F)cccc2OC)=NC3)ccc1C(=O)O [alisertib]
In short: as §1

[5] = compound: COc1cc2nc(-c3cc(F)ccc3O)nc(N[C@@H]3CNC[C@H]3C(C)(C)O)c2cc1OC
In short: as §1

[6] = compound: COc1cc2ncnc(Nc3ccc(F)c(Cl)c3)c2cc1OCCCN1CCOCC1 [gefitinib]
In short: as §1

[7] = compound: COc1cccc2cc(-c3nc([C@H]4CC[C@H](C(=O)O)CC4)n4ncnc(N)c34)[nH]c12
In short: as §1

[8] = compound: CS(=O)(=O)CCNCc1ccc(-c2ccc3ncnc(Nc4ccc(OCc5cccc(F)c5)c(Cl)c4)c3c2)o1 [lapatinib]
In short: as §1

[9] = compound: CS(=O)(=O)c1ccc(-c2cnc(N)c(C(=O)Nc3ccccc3)n2)cc1
In short: as §1

[10] = compound: C[C@@H](Oc1cc(-c2cnn(C3CCNCC3)c2)cnc1N)c1c(Cl)ccc(F)c1Cl [crizotinib]
In short: as §1

[11] = compound: C[C@@H]1COCCN1C2=NC(=NC(=C2)C3(CC3)S(=O)(=O)C)C4=C5C=CNC5=CC=C4
In short: as §1

[12] = compound: C[C@H](C1=CC=C(C=C1)C(=O)NC2=C3C=CNC3=NC=C2)N
In short: as §1

[13] = compound: C[C@H](Nc1ncnc2nc[nH]c12)c1cc2cccc(Cl)c2c(=O)n1-c1ccccc1 [duvelisib]
In short: as §1

[14] = compound: Cc1cc(Nc2cc(N3CCN(C)CC3)nc(Sc3ccc(NC(=O)C4CC4)cc3)n2)n[nH]1 [tozasertib]
In short: as §1

[15] = compound: Cc1cc(SCc2sc(-c3ccc(C(F)(F)F)cc3)nc2C)ccc1OCC(=O)O
In short: as §1

[16] = compound: Cc1ccc(-n2nc(C(C)(C)C)cc2NC(=O)Nc2ccc(OCCN3CCOCC3)c3ccccc23)cc1 [doramapimod]
In short: as §1

[17] = compound: Cc1ccc(C(=O)N(CCCN)[C@@H](c2nc3cc(Cl)ccc3c(=O)n2Cc2ccccc2)C(C)C)cc1 [ispinesib]
In short: as §1

[18] = compound: COc1cc(C(=O)O)ccc1NC(=O)[C@@H]1N[C@@H](CC(C)(C)C)[C@](C#N)(c2ccc(Cl)cc2F)[C@H]1c1cccc(Cl)c1F [idasanutlin]
In short: as §1

[19] = compound: CS(=O)(=O)N1CCN(Cc2cc3nc(-c4cccc5[nH]ncc45)nc(N4CCOCC4)c3s2)CC1 [pictilisib]
In short: as §1

[20] = compound: Cc1cc(Nc2cc(CN3CCOCC3)c3nc(C)c(Cc4ccc(Cl)cc4F)n3n2)n[nH]1 [gandotinib]
In short: as §1

Measured: log2 fold change

NAMPT (UniProt C9JF35)
inactive: [1] -0.063 | [2] 0.048 | [3] -0.062 | [4] -0.041 | [5] 0.029 | [6] 0.039 | [7] 0.015 | [8] -0.047 | [9] 0.02 | [10] -0.01 | [11] 0.056 | [12] 0.198 | [13] 0.012 | [14] -0.07 | [15] -0.129 | [16] 0.139 | [17] -0.025

NCAPD2 (UniProt Q15021)
inactive: [1] 0.025 | [2] -0.006 | [3] 0.061 | [18] -0.072 | [4] -0.005 | [5] 0.092 | [6] 0.029 | [7] -0.138 | [8] -0.024 | [19] 0.059 | [9] 0.018 | [10] -0.024 | [11] 0.004 | [12] 0.093 | [20] -0.077 | [15] 0.109 | [16] -0.049 | [17] -0.029

NCK1 (UniProt P16333)
inactive: [1] 0.049 | [2] -0.054 | [3] 0.13 | [18] -0.001 | [4] -0.127 | [5] -0.165 | [6] 0.002 | [7] -0.024 | [8] -0.066 | [9] -0.077 | [10] -0.449 | [11] 0.171 | [12] 0.162 | [15] 0.076 | [16] -0.008 | [17] -0.173

NAA11 (UniProt Q9BSU3)
inactive: [1] 0.077 | [2] -0.026 | [3] -0.022 | [18] 0.037 | [4] -0.066 | [5] 0.13 | [6] 0.037 | [7] 0.116 | [8] -0.085 | [9] 0.027 | [10] -0.065 | [11] 0.006 | [12] 0.086 | [15] 0.114 | [16] -0.037 | [17] -0.009

NCAPG (UniProt Q9BPX3)
inactive: [1] 0.079 | [2] -0.018 | [3] 0.054 | [18] -0.064 | [4] 0.03 | [5] 0.038 | [6] 0.022 | [7] -0.116 | [8] 0 | [19] 0.071 | [9] 0.029 | [10] -0.031 | [11] 0.034 | [12] 0.034 | [20] -0.144 | [15] 0.071 | [16] -0.077 | [17] -0.01

NACC1 (UniProt Q96RE7)
inactive: [1] 0.009 | [2] -0.116 | [3] 0.103 | [18] 0.02 | [4] 0.016 | [5] -0.198 | [6] 0.021 | [7] 0.024 | [8] -0.031 | [19] -0.034 | [9] 0 | [10] 0.005 | [11] 0.082 | [12] -0.03 | [20] -0.129 | [15] 0.152 | [16] -0.064 | [17] -0.019

NDFIP1 (UniProt Q9BT67)
inactive: [1] 0.051 | [2] -0.134 | [3] 0.106 | [18] -0.034 | [4] -0.105 | [6] -0.155 | [7] -0.14 | [19] 0.228 | [9] 0.349 | [10] -0.004 | [11] 0.045 | [12] -0.167 | [20] 0.052 | [15] 0.08 | [16] -0.068 | [17] 0.015

NDUFV3 (UniProt P56181)
inactive: [1] 0.087 | [2] -0.073 | [3] -0.094 | [18] -0.04 | [4] -0.008 | [5] 0.017 | [6] -0.012 | [7] -0.003 | [8] 0 | [9] -0.008 | [10] 0.017 | [11] 0.045 | [12] 0.061 | [13] -0.01 | [14] 0.091 | [15] -0.064 | [16] -0.011 | [17] 0.006

NACA4P (UniProt Q9BZK3)
inactive: [1] 0.122 | [2] -0.063 | [3] 0.135 | [18] -0.154 | [4] 0.056 | [6] -0.199 | [7] 0.101 | [9] -0.046 | [10] -0.271 | [11] -0.251 | [12] 0.1 | [13] -0.113 | [14] -0.227 | [15] 0.073 | [16] 0.005 | [17] -0.033

NEBL (UniProt O76041)
inactive: [1] -0.005 | [2] 0 | [3] 0.16 | [18] 0.061 | [4] -0.062 | [5] 0.039 | [6] -0.019 | [7] 0.059 | [8] 0.013 | [9] 0.123 | [10] -0.016 | [11] -0.013 | [12] 0.04 | [13] -0.001 | [14] -0.1 | [15] -0.074 | [16] -0.001 | [17] -0.077

NCOA6 (UniProt Q14686)
inactive: [1] -0.019 | [2] -0.047 | [18] 0.078 | [4] 0.017 | [5] 0.084 | [6] -0.053 | [7] 0.026 | [8] 0.108 | [19] -0.045 | [9] 0.109 | [10] -0.039 | [11] 0.138 | [20] 0.006 | [14] 0.058 | [16] 0.175 | [17] -0.195

Random excerpt: 2 records from the list
NEBL (UniProt O76041)
inactive: [1] -0.005 | [2] 0 | [3] 0.16 | [18] 0.061 | [4] -0.062 | [5] 0.039 | [6] -0.019 | [7] 0.059 | [8] 0.013 | [9] 0.123 | [10] -0.016 | [11] -0.013 | [12] 0.04 | [13] -0.001 | [14] -0.1 | [15] -0.074 | [16] -0.001 | [17] -0.077

NDFIP1 (UniProt Q9BT67)
inactive: [1] 0.051 | [2] -0.134 | [3] 0.106 | [18] -0.034 | [4] -0.105 | [6] -0.155 | [7] -0.14 | [19] 0.228 | [9] 0.349 | [10] -0.004 | [11] 0.045 | [12] -0.167 | [20] 0.052 | [15] 0.08 | [16] -0.068 | [17] 0.015

Further entries follow.

NDUFB8 (UniProt O95169)
inactive: [1] -0.042 | [2] 0.004 | [3] -0.005 | [18] 0.069 | [4] -0.04 | [5] -0.141 | [6] -0.023 | [7] 0.06 | [8] -0.036 | [19] -0.034 | [9] 0.035 | [10] 0.09 | [11] -0.015 | [12] -0.001 | [20] 0.045 | [15] 0.078 | [16] -0.057 | [17] 0.123

NCS1 (UniProt P62166)
inactive: [1] 0.001 | [2] -0.06 | [3] 0.009 | [18] -0.045 | [4] -0.039 | [5] -0.011 | [6] -0.014 | [7] -0.002 | [19] 0.023 | [9] 0.012 | [10] -0.017 | [11] 0.019 | [12] -0.004 | [13] 0.047 | [20] 0.023 | [14] 0.029 | [15] 0.056 | [16] 0.01 | [17] -0.246

NDUFV1 (UniProt E9PJL9)
inactive: [1] -0.116 | [2] 0.021 | [18] -0.037 | [4] 0.086 | [5] 0.165 | [6] 0.081 | [7] -0.092 | [8] -0.189 | [9] -0.095 | [10] 0.076 | [14] -0.009 | [16] -0.042

NAPG (UniProt Q99747)
inactive: [1] 0.046 | [2] -0.046 | [3] 0.052 | [18] -0.001 | [4] -0.005 | [5] -0.066 | [6] 0.025 | [7] -0.089 | [8] 0.029 | [19] -0.008 | [9] 0.045 | [10] -0.029 | [11] 0.045 | [12] -0.098 | [20] -0.046 | [15] 0.143 | [16] -0.05 | [17] 0.025

NAA38 isoform 2 (UniProt Q9BRA0)
inactive: [1] 0.033 | [2] -0.014 | [3] 0.001 | [18] -0.045 | [4] 0.044 | [5] -0.005 | [6] 0.02 | [7] 0.052 | [8] 0.062 | [19] 0.023 | [9] 0.012 | [10] -0.052 | [11] 0.099 | [12] 0.018 | [20] -0.004 | [15] 0.015 | [16] -0.02 | [17] -0.064

NCL (UniProt P19338)
inactive: [1] -0.091 | [2] 0.454 | [3] 0.026 | [18] 0.274 | [4] -0.16 | [5] -0.099 | [6] -0.022 | [7] -0.217 | [8] 0.159 | [19] -0.085 | [9] -0.136 | [10] 0.12 | [11] -0.59 | [12] 0.428 | [20] 0.315 | [15] 0.075 | [16] 0.254 | [17] -0.19

NA (UniProt J3KR12)
inactive: [1] 0.123 | [4] -0.116 | [6] -0.134 | [7] 0.077 | [10] 0.251 | [11] 0.061 | [16] -0.017 | [17] 0.006

NASP isoform 2 (UniProt P49321)
inactive: [4] -0.129 | [7] -0.58
